## Primary screen of a compound library

Mtb cholesterol medium: 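Growth of Mycobacterium tuberculosis over 4 days (cholesterol / DPPC medium with tyloxapol); the read-out is not stated. Tested at 50 µM. The record gives no direction; compounds that gave an IC50 in retests scored well above the rest, so higher reads as more growth inhibition. Of about 69,000 compounds tested this way, about 370 (0.54%) reached 50% or more in at least one test.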
Mtb glucose medium: 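Phenotypic screen: M. tuberculosis growth, glucose 7H9 medium, 3 days; the read-out is not stated. Concentration: 50 µM. The record gives no direction; compounds that gave an IC50 in retests scored well above the rest, so higher reads as more growth inhibition. Of about 69,000 compounds tested this way, about 760 (1.1%) reached 50% or more in at least one test.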

Each number is a percent effect as filed.
The controls that fix the scale are not given in the record; negative values are as filed.
This is an unselected part of the compounds tested.
Two or more numbers in one place are separate tests of the same structure; such repeats can differ widely.

| Compound | Mtb cholesterol medium | Mtb glucose medium |
|---|---|---|
| `O=c1[nH]c(-c2ccccc2F)nc2c1CCNC2` | 9.865% | -47.33% |
| `COCC1c2c(cnn2C)CCN1Cc1ccc(C)o1` (centres undefined) | -17.47% | -20.4% |
| `O=C(O)C(F)(F)F.[H][C@@]12CCN(C3CCOCC3)C[C@@]1([H])O[C@H](C(=O)N1CCOCC1)C2` | -10.89% | 12.36% |
| `CC1(C)CN(S(=O)(=O)N2CCOCC2)CC1c1ccccc1` (centres undefined) | 0.9787% | 31.43% and 0.4225% |
| `CCCS(=O)(=O)NCC(O)c1c(Cl)cccc1Cl` (centres undefined) | 17.09% | 8.117% and 2.064% |
| `COc1ccc(OC)c(C(O)CN2CC(n3cccn3)C2)c1` (centres undefined) | 2.209% | 10.28% |
| `Cn1cc(N2CCC3(CCN(C(=O)c4cccn4C)C3)C2=O)cn1` (centres undefined) | 8.488% | -8.918% |
| `[H][C@]12CNC[C@@]1(C(=O)N1CCN(Cc3ncccc3C)CC1)CN(C)C2` | 16.17% | -10.7% |
| `[H][C@@]12CCCO[C@]1([H])[C@H](Oc1cccnc1)CN2C(=O)c1cscn1` | -15.11% and -2.117% | 2.555% |
| `[H][C@@]12COC[C@]1([H])[C@@H](OCCN(C)C)CN2C(=O)c1ccc[nH]1` | -15.31% | -26.11% |
| `Cc1ccc(CC(=O)N2CCCC(c3cc(C(N)=O)[nH]n3)C2)cn1` (centres undefined) | 17.23% | -1.179% |
| `O=C(O)C(F)(F)F.O=C(O)C(F)(F)F.[H][C@@]12CN(Cc3ccsc3)CCC[C@]1(C(=O)O)CN(CCOC)C2` | 1.046% | 6.198% |
| `O=C(NC1CCCN(Cc2c(F)cccc2F)C1)c1cc[nH]n1` (centres undefined) | -7.909% | 15.68% |
| `CN(C)CCN(C)C[C@@H]1CN(Cc2cccc(O)c2)C[C@@H]1CO` | -13.34% | -37.68% and 2.2% |
| `Cc1noc(C)c1C(=O)N1Cc2ncn(C)c2C(COCC2CC2)C1.O=C(O)C(F)(F)F` (centres undefined) | -7.375% | 10.15% |
| `Cc1ccc(C)c(NC(=O)c2cc(S(=O)(=O)N3CCSCC3)c[nH]2)c1` | 12.34% and -3.609% | 27.1% |
| `CCc1nccn1C1CCCN(C(=O)Cc2ccc(OC)c(F)c2)C1` (centres undefined) | -5.127% | -19.39% |
| `CN(CCCO)c1nc(-c2ccc(C(N)=O)cc2)nc2c1CCNC2` | -3.758% | -1.353% and -12.05% |
| `CCc1nnc(CN(C)Cc2cccc(C(=O)Nc3nccs3)c2)o1` | 1.217% | -9.847% |
| `CCn1c(N)nc2cc(C(=O)NCCc3ccncc3)cnc21` | 12.48% | -1.73% |
| `Cn1ncc(NC(=O)Cn2ccc(-c3cccc(F)c3)n2)n1` | 2.006% | -2.233% |
| `Cc1cc(C)n(CC2CCCN2C(=O)Cc2csc(C)n2)n1` (centres undefined) | -11.61% | -12.31% |
| `Cc1cc(=O)n2nc(Oc3ccc(F)c(F)c3)sc2n1` | 3.782% | -5.367% |
| `Cc1cc(N(C)Cc2c(C)noc2C)n2nc(C)c(C)c2n1` | 3.229% | 12.71% and -1.511% |
| `Cc1cc(CN(C)C(=O)NC(C)c2nncn2C)no1` (centres undefined) | -3.42% | -8.561% and 4.143% |
| `[H][C@]12CCC[C@@]1(COC)CN(C(=O)COCC)C2` | -11.25% | 8.658% |
| `CCOC(=O)N1CCC(C(=O)c2cc(F)ccc2F)CC1` | 17.42% | -15.02% |
| `CN(Cc1nnc2n1CCC2)C(=O)c1ccc2c(c1)OCCO2` | -75.6% | -42.91% |
| `CCS(=O)(=O)N1CCc2ccc(NC(=O)NC3CCCCC3)cc21` | 5.95% | 8.301% |
| `O=C(O)C(F)(F)F.O=C(O)C(F)(F)F.[H][C@@]12CCN(Cc3ccsc3)C[C@]1([H])[C@@H](CNc1ncccn1)OC2` | -26.55% | -16.45% |
| `Cn1ccnc1-c1ccccc1C(=O)N1CCc2c(nc(N)[nH]c2=O)C1` | -29.46% | -25.59% |
| `Cc1nc2cc(O)nn2c(C)c1CCC(=O)NCc1cc(Br)cs1` | -0.3858% | 4.664% |
| `O=C(CCc1cc(Cl)no1)N1CCCCC1CCn1ccnc1` (centres undefined) | -0.5647% | 3.36% |
| `CNC(=O)CN(C(=O)c1ccc(SC)o1)c1cccc(F)c1` | 7.3% | -1.068% and -1.529% |
| `Cc1cc(CN(C)C(=O)CN2CCCCCC2=O)no1` | -7.188% | 18.46% |
| `CCn1ncc2c1CCCC2NCc1csc(C(C)C)n1` (centres undefined) | 7.35% | 31.78% |
| `CCn1c(CC2CCN(C(=O)C3CC(C(C)C)=NO3)CC2)nn(C)c1=O` (centres undefined) | 7.857% | 20.96% |
| `CCO[C@@H]1CCN(C(=O)c2cnc(C)cn2)[C@@H]1Cc1cnn(C)c1` | -9.375% and -7.857% | -24.84% |
| `CN(CCO)c1ncc(-c2ccc(NC(=O)[C@@H]3CCCCN3)cc2)cn1` | 6.524% | 28.81% |
| `Cc1nc(COc2nc(C(C)C)no2)cs1` | 11.09% | 36.94% |
| `COCCn1cc(C(=O)N2CCCC2c2noc(C)n2)ccc1=O` (centres undefined) | -18.42% and -1.445% | -49.29% |
| `CC(C)c1nnc2n1CCN(C(=O)c1cccc(OCC(N)=O)c1)C2` | -20.82% | -26.28% |
| `COCCO[C@@H]1CCN(Cc2csc(C)n2)[C@H]1Cc1ccccc1.O=C(O)C(F)(F)F` | -7.477% | 11.06% |
| `CCNC(=O)N1CCC(NC(=O)NCCCc2cccc(F)c2)C1` (centres undefined) | 3.016% | -2.19% |
| `Cc1csc2c(N3CCC(NCCCC4CCOC4)CC3)ncnc12` (centres undefined) | -4.696% and -42.16% | -23.93% |
| `[H][C@]12CN(c3ncc(C)cn3)C[C@@]1([H])S(=O)(=O)CC[C@@H]2C(=O)NC(C)C` | -44.23% | -34.29% and -1.259% |
| `CC(C)[C@H](Nc1cc(-c2ccncc2)nc2ccnn12)C(N)=O` | -9.334% | 23.73% |
| `Cc1nc(CN2CCC(CNC(=O)NCCC3CCC3)CC2)oc1C` | 34% | 43.44% and 42.59% |
| `CN(C)c1cc(CNC(=O)c2ccc(F)cc2F)ccn1` | -2.504% | 13.96% |
| `COC(=O)c1cccc(C(=O)N2CCN(c3cc(C)ccc3C)CC2)n1` | 12.59% | 26.27% |

5 of the entries, repeated:

Compound	Mtb cholesterol medium	Mtb glucose medium
Cn1cc(N2CCC3(CCN(C(=O)c4cccn4C)C3)C2=O)cn1 (centres undefined)	8.488%	-8.918%
COc1ccc(OC)c(C(O)CN2CC(n3cccn3)C2)c1 (centres undefined)	2.209%	10.28%
CN(CCCO)c1nc(-c2ccc(C(N)=O)cc2)nc2c1CCNC2	-3.758%	-1.353% and -12.05%
O=C(O)C(F)(F)F.O=C(O)C(F)(F)F.[H][C@@]12CN(Cc3ccsc3)CCC[C@]1(C(=O)O)CN(CCOC)C2	1.046%	6.198%
Cc1ccc(C)c(NC(=O)c2cc(S(=O)(=O)N3CCSCC3)c[nH]2)c1	12.34% and -3.609%	27.1%

The values are deposited in ChEMBL (CHEMBL3988442, “University of Dundee, Small-Polar-MMV Screening Library” (2021)).